{"source": "paper PMC11219945", "about": "“Assessing genotoxic effects of chemotherapy agents by a robust in vitro assay based on mass spectrometric quantification of γ-H2AX in HepG2 cells” (Frontiers in Pharmacology, 2024)", "origin": "cited, not measured here", "note": "Counter-ions that a name gives are not always drawn."}
{"conditions": "Table 1; cited from earlier work"}
{"compound": "COc1cccc2c1C(=O)c1c(O)c3c(c(O)c1C2=O)C[C@@](O)(C(=O)CO)C[C@@H]3O[C@H]1C[C@H](N)[C@H](O)[C@H](C)O1", "note": "[Doxorubicin]", "Required metabolic activation": "−"}
{"compound": "N#Cc1ccc(C(c2ccc(C#N)cc2)n2cncn2)cc1", "note": "[Letrozole]", "Required metabolic activation": "−"}
{"compound": "CN(C)/N=N/c1[nH]cnc1C(N)=O", "note": "[Dacarbazine]", "Required metabolic activation": "+"}
{"compound": "C=C1C[C@@H]2[C@H](CC[C@]3(C)C(=O)CC[C@@H]23)[C@@]2(C)C=CC(=O)C=C12", "note": "[Exemestane]", "Required metabolic activation": "−"}
{"compound": "Sc1ncnc2nc[nH]c12", "note": "[6-mercaptopurine]", "Required metabolic activation": "+"}
{"compound": "N.N.[Cl][Pt][Cl]", "note": "[Cisplatin]", "Required metabolic activation": "−"}
{"compound": "NC(=O)NO", "note": "[Hydroxyurea]", "Required metabolic activation": "−"}
{"compound": "CC/C(=C(\\c1ccccc1)c1ccc(OCCN(C)C)cc1)c1ccccc1", "note": "[Tamoxifen]", "Required metabolic activation": "+"}
{"compound": "CC(C)(C#N)c1cc(Cn2cncn2)cc(C(C)(C)C#N)c1", "note": "[Anastrozole]", "Required metabolic activation": "−"}
{"compound": "CC[C@@]1(O)C(=O)OCc2c1cc1n(c2=O)Cc2c-1nc1cc(F)c(C)c3c1c2[C@@H](N)CC3", "note": "[Exatecan]", "Required metabolic activation": "−"}
{"compound": "C[C@]12CCC(=O)C(O)=C1CC[C@@H]1[C@@H]2CC[C@]2(C)C(=O)CC[C@@H]12", "note": "[Formestane]", "Required metabolic activation": "−"}
{"compound": "COc1cccc2c1C(=O)c1c(O)c3c(c(O)c1C2=O)C[C@@](O)(C(=O)CO)C[C@@H]3O[C@H]1C[C@H](N)[C@@H](O)[C@H](C)O1", "note": "[Epirubicin hydrochloride]", "Required metabolic activation": "−"}
{"compound": "COc1cccc2c1C(=O)c1c(O)c3c(c(O)c1C2=O)C[C@@](O)(C(=O)CO)C[C@@H]3O[C@H]1C[C@H](N)[C@H](O[C@@H]2CCCCO2)[C@H](C)O1", "note": "[Pirarubicin]", "Required metabolic activation": "−"}
{"compound": "CCC1=C[C@@H]2CN(C1)Cc1c([nH]c3ccccc13)[C@@](C(=O)OC)(c1cc3c(cc1OC)N(C)[C@H]1[C@@](O)(C(=O)OC)[C@H](OC(C)=O)[C@]4(CC)C=CCN5CC[C@]31[C@@H]54)C2", "note": "[Vinorelbine]", "Required metabolic activation": "−"}
{"compound": "Nc1nc2nc[nH]c2c(=S)[nH]1", "note": "[Thioguanine]", "Required metabolic activation": "+"}
{"compound": "O=C1[O][Pt]2([NH][C@@H]3CCCC[C@H]3[NH]2)[O]C1=O", "note": "[Oxaliplatin]", "Required metabolic activation": "−"}
{"compound": "CC[C@@]1(O)C(=O)OCc2c1cc1n(c2=O)Cc2cc3c(CN(C)C)c(O)ccc3nc2-1", "note": "[Topotecan]", "Required metabolic activation": "−"}
{"compound": "CCc1c2c(nc3ccc(OC(=O)N4CCC(N5CCCCC5)CC4)cc13)-c1cc3c(c(=O)n1C2)COC(=O)[C@]3(O)CC", "note": "[Irinotecan]", "Required metabolic activation": "−"}
{"compound": "O=c1[nH]c(=O)n(C2CCCO2)cc1F", "note": "(stereo not drawn) [Tegafur]", "Required metabolic activation": "−"}
{"compound": "O=P1(N(CCCl)CCCl)NCCCO1", "note": "(stereo not drawn) [Cyclophosphamide]", "Required metabolic activation": "+"}
{"compound": "CC[C@]1(O)C[C@H]2CN(CCc3c([nH]c4ccccc34)[C@@](C(=O)OC)(c3cc4c(cc3OC)N(C=O)[C@H]3[C@@](O)(C(=O)OC)[C@H](OC(C)=O)[C@]5(CC)C=CCN6CC[C@]43[C@@H]65)C2)C1", "note": "[Vincristine]", "Required metabolic activation": "−"}
{"compound": "CCC1(c2ccc(N)cc2)CCC(=O)NC1=O", "note": "(stereo not drawn) [Aminoglutethimide]", "Required metabolic activation": "−"}
{"compound": "CCCCCCNC(=O)n1cc(F)c(=O)[nH]c1=O", "note": "[Carmofur]", "Required metabolic activation": "−"}
{"compound": "COc1cc([C@@H]2c3cc4c(cc3[C@@H](O[C@@H]3O[C@@H]5CO[C@@H](c6cccs6)O[C@H]5[C@H](O)[C@H]3O)[C@H]3COC(=O)[C@H]23)OCO4)cc(OC)c1O", "note": "[Teniposide]", "Required metabolic activation": "−"}
{"compound": "O=c1[nH]cc(F)c(=O)[nH]1", "note": "[5-fluorouracil]", "Required metabolic activation": "−"}
{"compound": "N.N.O=C([O-])C1(C(=O)[O-])CCC1.[Pt+2]", "note": "[Carboplatin]", "Required metabolic activation": "−"}
{"compound": "COc1cccc2c1C(=O)c1c(O)c3c(c(O)c1C2=O)C[C@@](O)(C(C)=O)C[C@@H]3O[C@H]1C[C@H](N)[C@H](O)[C@H](C)O1", "note": "[Daunorubicin]", "Required metabolic activation": "−"}
